Assay [1] has as its target Human TRAIL-R2 ectodomain (residues 58–184), released from the Fc fusion (human) (UniProt O14763). Nature of the assay: SEC; size-exclusion elution profiles of the purified proteins against marker proteins; both purified.
For assay [2], the target named is T1, HCMV UL141 (residues 30–279), C-terminal hexa-histidine tag, of the crystallised complex (human cytomegalovirus (HCMV), FIX strain) (UniProt Q6RJQ3).
T1 sequence: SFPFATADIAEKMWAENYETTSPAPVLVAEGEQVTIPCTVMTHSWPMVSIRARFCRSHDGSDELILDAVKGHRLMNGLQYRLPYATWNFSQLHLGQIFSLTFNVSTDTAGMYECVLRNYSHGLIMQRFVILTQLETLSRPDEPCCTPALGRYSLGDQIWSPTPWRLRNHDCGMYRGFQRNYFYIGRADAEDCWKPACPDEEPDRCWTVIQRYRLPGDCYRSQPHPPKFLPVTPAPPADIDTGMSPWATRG
Put plainly: crystal structure; both purified.

The chains behind the UniProt entries cited, without tags or fusion partners. Residues count along the entry.
UniProt O14763, residues 58-184: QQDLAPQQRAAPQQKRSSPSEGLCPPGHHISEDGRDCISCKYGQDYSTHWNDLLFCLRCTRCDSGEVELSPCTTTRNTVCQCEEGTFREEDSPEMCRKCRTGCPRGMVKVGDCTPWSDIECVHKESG

Results are given in words; binding and its absence hold for the method and conditions named. Some binding calls cover weakened binding; strength is not graded here. For some assays here: Tags and fused reporters may be left off the sequences shown.

As for “Human TRAIL-R2 ectodomain (residues 58–184), released from the Fc fusion (from UniProt O14763 58-184) (domain or fragment)”, the binding result in assay [1] is on record as “no binding”; in assay [2], “binds”.

Values taken from PMC3605307.
